Data on two compounds can be found in patent US20250188110A1, “SPECIFIC SMALL MOLECULE INHIBITORS THAT BLOCK KMT9 METHYLTRANSFERASE ACTIVITY AND FUNCTION” (ALBERT-LUDWIGS-UNIVERSITÄT FREIBURG, priority 2021, published 2025).

Chains of the proteins cited; added tags and fusions are not shown. Residues count along the entry.
UniProt Q9Y5N5, whole entry: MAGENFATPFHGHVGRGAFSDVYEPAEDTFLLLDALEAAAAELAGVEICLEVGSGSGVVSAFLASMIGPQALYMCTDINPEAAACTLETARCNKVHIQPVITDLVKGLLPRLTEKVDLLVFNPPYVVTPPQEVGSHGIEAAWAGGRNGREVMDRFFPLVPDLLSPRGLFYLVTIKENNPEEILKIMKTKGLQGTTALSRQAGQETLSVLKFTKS
UniProt Q9UI30, 1-120 isoform 2 partner: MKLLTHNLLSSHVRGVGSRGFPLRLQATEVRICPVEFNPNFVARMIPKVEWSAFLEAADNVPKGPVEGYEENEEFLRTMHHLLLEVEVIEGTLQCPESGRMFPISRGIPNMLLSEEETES

Structures are written as SMILES. Where two headings read alike, the source gives them in different places. The match of structure and compound is tentative.

The target in experiment [1] is T1, KMT9 (Homo sapiens, UniProt Q9Y5N5). The experiment in a line: Microscale thermophoresis (MST) KMT9 binding. Here is the method:
To determine the binding affinity of the compounds according to the present invention and KMT9, microscale thermophoresis (MST) analysis was performed with a NanoTemper Monolith NT.115 instrument (NanoTemper Technologies GmbH). KMT9 was labelled with a RED-Tris-NTA labelling kit (NanoTemper Technologies GmbH) based on the manufacturer's instructions. Buffer including 25 mM HEPES (pH 7.5), 100 mM NaCl, 1 mM DTT and 0.05% Tween was used for the reaction buffer. Varying concentrations of the tested compounds of formula (I) as indicated in Table 1 were titrated against His-tag labelled KMT9 proteins (20 nM). Samples were loaded into standard Capillaries (NanoTemper Technologies GmbH) and MST measurements were performed using 40% MST power and 100% LED power. For each set of binding experiments, MST measurement was carried out with Binding Affinity module in MO.Control program under Nano-RED Excitation. Datasets were processed with the MO.Affinity Analysis software (NanoTemper Technologies GmbH).
For the results of the microscale thermophoresis (MST) assay shown as “MST” in Table 1, “A” represents a Kd of equal to or less than 10 nM (Kd≤10 nM); “B” represents a Kd of greater than 10 nM and equal to or less than 100 nM (10 nM<Kd<100 nM); “C” represents a Kd of greater than 100 nM and equal to or less than 1000 nM (100 nM<Kd ≤ 1000 nM); “D” represents a Kd of greater than 1000 nM (1000 nM<Kd).
On the technique in general: Microscale thermophoresis detects binding through changes in fluorescence in a small temperature gradient.

The target in experiment [2] is T1, KMT9. The experiment in a line: KMT9 thermal shift assay (SyproOrange). Conditions: 500 µM compound. On the procedure:
The assay was carried out in 96-well Hard-Shell PCR plates (Bio-Rad Laboratories Inc.). Assay buffer consisted of 50 mM BTP, 1 mM MgCl2 and 1 mM DTT at a pH of 8.5 (adjusted using 1 M HCl and 1 M NaOH). 20X inhibitor stock (in DMSO), 2X enzyme stock and 4X SyproOrange (SO) stock (both in assay buffer) were prepared. 1 μL of 20X compound, 4 μL of assay buffer, 10 μL of 2X KMT9 and 5 μL of 4X SO were pipetted. For the no-compound control, 20X inhibitor stock was replaced by DMSO. The final volume was 20 μL. The plate was spun down at 700 rpm for 1 min using a Hettich UNIVERSAL 320 centrifuge and incubated at 25° C., shaking at 600 rpm. After incubation, the plate was spun down for 1 min at 700 rpm and measurement was conducted using a CFX96 Touch Real-Time PCR Detection System (Bio-Rad Laboratories Inc.). The plate was equilibrated at 20° C. for 4 min and then heated stepwise at a rate of 1° C. per 15 s until 95° C. After every step, fluorescence was measured in FRET mode. Calculation of melting points was conducted by a Boltzman sigmoidal model using GraphPad Prism 7.0.
For the results of the thermal shift assay shown as “Thermal shift” in Table 1, “++++” represents a ΔTm of greater 20 K, “+++” represents a ΔTm of greater than 15 K and less than or equal to 20 K (15 K<ΔTm≤20 K); “++” represents a ΔTm of greater than 10 K and less than or equal to 15 K (10 K<ΔTm ≤ 15 K); “+” represents a ΔTm of equal to or less than 10 K (ΔTm≤10 K).

In experiment [3] the target is T1, KMT9. The experiment in a line: KMT9 methyltransferase inhibition assay, 3H-SAM scintillation (entries 1-154). Conditions: read-out: Inhibition; entries 1-154: 3H-SAM assay, 25 nM KMT9, 5 μM ETF1; tested form: TFA salt. On the procedure:
The assay was carried out in 0.5 mL Eppendorf tubes in duplicates. Assay buffer consisted of 50 mM BTP, 1 mM MgCl2, 1 mM DTT and 0.01% Triton-X^100 at a pH of 8.5 (adjusted using 1 M HCl and 1 M NaOH). 20X inhibitor stock (in DMSO), 2X enzyme stock and 4X substrate mix (both in assay buffer) were prepared. The substrate mix consisted of Tritium-labelled S-adenosylmethionine (3H-SAM), S-adenosylmethionine (SAM) and eukaryotic peptide chain release factor subunit1 (Homo sapiens, residues 140-275)(ETF1). Final assay concentrations were set to 25 nM KMT9, 0.3 μM 3H-SAM, 0.7 µM SAM and 5 μM ETF1. […] 5 μL of 4x substrate mix was added to initiate the reaction. The final reaction volume was 20 μL. For the positive control, the compound of formula (I) was replaced by DMSO; for the negative control, the compound of formula (I) was replaced by DMSO and KMT9 was replaced by assay buffer. The reaction mix was incubated in an Eppendorf thermomixer comfort at 30° C. for 2 h, shaking at 300 rpm. The reaction was quenched using 5 μL 50% trichloroacetic acid (TCA) and incubated at 25° C. for 5 minutes. […] The scintillation signal was measured for 3x 1 min using TriCarb 2910 TR (Perkin Elmer) scintillation counter in 3H CPM mode (LL: 0, UL: 18.6). Inhibition was calculated using the following formula: […]

In another experiment the test system is HT-1376 cells. The experiment can be described thus: Inhibition of cell proliferation, X-Celligence RTCA, HT-1376. The following applies: 5000 cells/well. On the procedure: Cell proliferation was determined using X-Celligence RTCA system (Roche). For real-time recording of HT-1376, resp. Cal29 cell proliferation, 5000 cells/well were seeded in 16 well E-plates (Roche). Cells were seeded in the presence of DMSO or the tested compound of formula (I) as indicated in Table 124 h before seeding in E-plates. Cell indices were automatically recorded every 15 minutes. Relative velocities represent the change of the cell index over time.
For the results of the HT-1376, resp. Cal29 cell proliferation assay shown as “in vivo (HT-1376 Cells)” and “in vivo (Cal29 Cells)” in Table 1, “***” represents an anti-proliferation effect at less than or equal to 10 μM; “**” represents an anti-proliferation effect at greater than 10 µM and less than or equal to 30 μM; “*” represents an anti-proliferation effect at greater than 30 µM and less than or equal to 100 μM.

Experiment [4] addresses T1, KMT9. The experiment can be described thus: KMT9 methyltransferase inhibition assay, MTaseGlo luminescence (from entry 155). Conditions: read-out: Inhibition (IC50); MTaseGlo procedure (entries from 155); 100 nM KMT9, 5 μM ETF1, 1 μM SAM. Here is the method: For the compounds from entry 155 on in Table 1, the following procedure was used to determine IC50 values: The assay was carried out in white, opaque 384-well OptiPlates (PerkinElmer). For IC50 determination, a 2.5x substrate mix (final assay concentrations: 5 μM ETF1, 1 μM SAM and 1x MTaseGlo Reagent), a 2.5x KMT9 solution (final assay concentration 100 nM) and a 5x inhibitor stock 1:1 dilution series (concentration according to the desired range; dilution series was prepared in assay buffer containing 10% DMSO to obtain a final DMSO concentration of 2% in the assay) were prepared. 2 μL of 5x inhibitor stock and 4 μL of 2.5x KMT9 were pipetted, the plate was spun down at 700 rpm for 1 min using a Hettich UNIVERSAL 320 centrifuge and incubated at room temperature (around 25° C.) for 15 min. The reaction was initiated by adding 4 μL of 2.5x substrate mix, the plate was spun down as described before and incubated at 30° C. for 2 h. Afterwards, 10 μL of 2× MTaseGlo Detection solution was added, the plate was centrifuged as described above and incubated for 60 min at room temperature. Luminescence was measured using a PerkinElmer EnVision 2102 Multilabel Reader. Calculation of inhibition and data fitting was carried out as for entries 1-154. described above.
For the results of the methyltransferase inhibition assay shown as “Inhibition” in Table 1, “I” represents an IC50 less than 0.1 μM, “II” represents an IC50 equal or higher than 0.1 μM and less than 1 μM, “III” represents an IC50 equal or higher than 1 µM and less than 10 µM and “IV” represents an IC50 equal or higher than 10 µM

Turning to `CNc1ncnc2c1ccn2[C@@H]1C[C@H](CNCCCNCCc2cccc(CCc3ccccc3)c2)[C@@H](O)[C@H]1O`, the Kd on KMT9 [1] (read-out: MST, microscale thermophoresis, His-tag labelled KMT9 (20 nM), tested form: TFA salt) is > 1000 nM. For the same compound, on KMT9 [2] (ΔTm, 2 μM KMT9, 5X SO, tested form: TFA salt), the Thermal shift result was “++ (a ΔTm of greater than 10 K and less than or equal to 15 K (10 K<ΔTm ≤ 15 K))”. For the same compound, the IC50 on KMT9 [3] was > 10000 nM.
As for `Nc1nc(Cl)nc2c1ccn2[C@@H]1C[C@H](c2cccc(-c3cnsc3)c2)[C@@H](O)[C@H]1O`, on KMT9 [1] (read-out: MST (Kd), His-tag labelled KMT9 20 nM), the Kd was in the range of 100 to 1000 nM. Moreover, the “Thermal shift (ΔTm)” value at KMT9 [2] (2 μM KMT9) was “++ (a ΔTm of greater than 10 K and less than or equal to 15 K (10 K<ΔTm ≤ 15 K))”. Further, the “in vivo (HT-1376 Cells), anti-proliferation effect” value with HT-1376 cells is “** (an anti-proliferation effect at greater than 10 UM and less than or equal to 30 μM)”. Moreover, on KMT9 [4], the IC50 lay in the range of 1000 to 10000 nM.
